# Data from PMC10229567.
# Residue numbers refer to the chain shown, from its start. Numbers in names are those of the source. These are yes or no findings as the source states them, for the method shown. For part of these data: Binding seen in cells or lysates may run through a third protein. Some entries that bind do so weakly or less than the wild type. Sequences can lack the tags named with a protein.
# B1: S704A-mutant LOXL3-FLAG (protein, UniProt P58215 26-753)
# chain: SPSPSTGPEKKAGSQGLRFRLAGFPRKPYEGRVEIQRAGEWGTICDDDFTLQAAHILCRELGFTEATGWTHSAKYGPGTGRIWLDNLSCSGTEQSVTECASRGWGNSDCTHDEDAGVICKDQRLPGFSDSNVIEVEHHLQVEEVRIRPAVGWGRRPLPVTEGLVEVRLPDGWSQVCDKGWSAHNSHVVCGMLGFPSEKRVNAAFYRLLAQRQQHSFGLHGVACVGTEAHLSLCSLEFYRANDTARCPGGGPAVVSCVPGPVYAASSGQKKQQQSKPQGEARVRLKGGAHPGEGRVEVLKASTWGTVCDRKWDLHAASVVCRELGFGSAREALSGARMGQGMGAIHLSEVRCSGQELSLWKCPHKNITAEDCSHSQDAGVRCNLPYTGAETRIRLSGGRSQHEGRVEVQIGGPGPLRWGLICGDDWGTLEAMVACRQLGLGYANHGLQETWYWDSGNITEVVMSGVRCTGTELSLDQCAHHGTHITCKRTGTRFTAGVICSETASDLLLHSALVQETAYIEDRPLHMLYCAAEENCLASSARSANWPYGHRRLLRFSSQIHNLGRADFRPKAGRHSWVWHECHGHYHSMDIFTHYDILTPNGTKVAEGHKASFCLEDTECQEDVSKRYECANFGEQGITVGCWDLYRHDIDCQWIDITDVKPGNYILQVVINPNFEVAEADFTNNAMKCNCKYDGHRIWVHNCHIGDAFSEEANRRFERYPGQTSNQII
# B2: S704D-mutant LOXL3-FLAG (protein, UniProt P58215 26-753)
# chain: B1 chain with A679D
# Columns and labels:
# S704A-mutant LOXL3-FLAG [1] = target: S704A-mutant LOXL3-FLAG (UniProt P58215); test: co-IP; LOXL3 homodimerization, WT against S704A (Supplementary Fig. 3a); set-up not shown
# S704A-mutant LOXL3-FLAG [2] = target: S704A-mutant LOXL3-FLAG (UniProt P58215); test: reverse high-performance liquid chromatography (R-FPLC); LOXL3-FLAG (WT, S704A, S704D) enriched from stably expressing Huh7 cells and analysed for the homodimer; both purified
# S704D-mutant LOXL3-FLAG = S704D-mutant LOXL3-FLAG (UniProt P58215); test: as above
binder,measurement,setting,value
B1,binding,S704A-mutant LOXL3-FLAG [1],binds weakly
same,binding,S704A-mutant LOXL3-FLAG [2],binds weakly
B2,binding,S704D-mutant LOXL3-FLAG,binds
